Measurements published in patent publication US8394856B2, “(-)-Hydroxycitric acid for controlling inflammation” (Glykon Technologies Group, LLC, priority 2002, dated 2013).

Tested on: C-reactive protein
Assay: C-reactive protein in serum of rats fed a 30% fat, approximately 20% simple sugar diet
Format: in vivo
Settings: salt approximately 76 mg/day; change in CRP over 4 weeks vs control arm
From the text: To test the properties of HCA in various forms under conditions similar to those found in human clinical trials, the inventor arranged for rats to be fed a diet in which 30% of the calories were obtained from fat under standard conditions, with a further approximately 20% of the calories being supplied as simple sugars. Such a dietary combination of fat and simple sugars is noted as promoting a variety of metabolic imbalances and dysfunctions. The rats were intubated twice daily with one of five HCA salts or placebo. On weekends, the HCA was added to the food at an approprate dosage. The amount of HCA in each arm of 8 animals was based on the minimum dosage which had been found effective in the form of the pure trisodium salt of HCA in tests by Hoffmann-La Roche in animals ingesting a 70% glucose diet, i.e., 0.33 mmoles/kg body weight HCA given twice per day. […]
Tests were performed for C-reactive protein. […] Optical Density (OD) readings in the test kit used were 1 unit equals 50 picograms/mL. […]

SMILES: O=C([O-])CC(O)(C(=O)[O-])C(O)C(=O)[O-].[K+].[K+].[K+] (stereo not shown) [KHCA, potassium hydroxycitrate]
- Delta versus Control: 0.0005
